Assay results: US6528284
These are yes or no findings as the source states them, for the method shown. Some results given as binding are weak or reduced against the parent protein; the word gives no strength.

By UniProt entry, the sequences of proteins in these tests, tags left out. Where a name states a change or a piece, a line headed by the entry shows the natural chain unless it says otherwise. Residues count along the entry.
UniProt Q61937: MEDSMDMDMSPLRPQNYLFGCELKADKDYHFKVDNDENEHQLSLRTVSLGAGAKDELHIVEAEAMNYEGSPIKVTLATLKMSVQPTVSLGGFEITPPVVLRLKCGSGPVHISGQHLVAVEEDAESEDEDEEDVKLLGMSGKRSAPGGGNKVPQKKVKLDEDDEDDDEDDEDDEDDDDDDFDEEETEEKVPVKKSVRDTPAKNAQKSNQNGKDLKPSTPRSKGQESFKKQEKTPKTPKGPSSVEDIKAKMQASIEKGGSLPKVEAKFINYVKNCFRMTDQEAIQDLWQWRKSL
UniProt P11103, residues 2-1013: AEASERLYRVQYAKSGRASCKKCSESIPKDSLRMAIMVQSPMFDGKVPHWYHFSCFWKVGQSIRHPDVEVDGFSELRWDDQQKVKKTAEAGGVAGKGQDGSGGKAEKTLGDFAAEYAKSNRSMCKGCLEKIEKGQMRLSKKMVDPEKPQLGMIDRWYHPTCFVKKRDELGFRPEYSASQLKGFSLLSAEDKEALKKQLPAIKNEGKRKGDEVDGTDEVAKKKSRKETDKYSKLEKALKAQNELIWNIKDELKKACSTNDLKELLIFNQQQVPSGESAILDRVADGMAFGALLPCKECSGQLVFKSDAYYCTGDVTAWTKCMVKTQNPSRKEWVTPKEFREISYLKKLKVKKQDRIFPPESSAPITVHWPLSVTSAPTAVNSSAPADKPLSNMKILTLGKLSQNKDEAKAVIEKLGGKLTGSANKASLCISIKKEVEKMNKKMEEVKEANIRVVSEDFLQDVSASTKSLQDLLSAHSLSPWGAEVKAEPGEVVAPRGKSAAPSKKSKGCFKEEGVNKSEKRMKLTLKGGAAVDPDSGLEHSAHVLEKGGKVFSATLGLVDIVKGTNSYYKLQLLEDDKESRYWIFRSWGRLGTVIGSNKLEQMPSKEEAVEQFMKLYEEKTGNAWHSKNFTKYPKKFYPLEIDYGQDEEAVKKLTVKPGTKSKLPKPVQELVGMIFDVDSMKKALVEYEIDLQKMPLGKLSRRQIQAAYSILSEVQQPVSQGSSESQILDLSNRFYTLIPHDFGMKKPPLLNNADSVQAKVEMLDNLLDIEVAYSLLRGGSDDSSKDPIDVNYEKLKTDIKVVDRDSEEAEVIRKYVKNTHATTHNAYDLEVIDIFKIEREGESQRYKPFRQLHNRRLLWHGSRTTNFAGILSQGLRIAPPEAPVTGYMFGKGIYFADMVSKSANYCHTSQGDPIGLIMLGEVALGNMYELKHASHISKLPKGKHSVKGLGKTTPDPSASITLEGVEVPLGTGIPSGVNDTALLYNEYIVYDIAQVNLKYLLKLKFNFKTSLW
UniProt Q6A028: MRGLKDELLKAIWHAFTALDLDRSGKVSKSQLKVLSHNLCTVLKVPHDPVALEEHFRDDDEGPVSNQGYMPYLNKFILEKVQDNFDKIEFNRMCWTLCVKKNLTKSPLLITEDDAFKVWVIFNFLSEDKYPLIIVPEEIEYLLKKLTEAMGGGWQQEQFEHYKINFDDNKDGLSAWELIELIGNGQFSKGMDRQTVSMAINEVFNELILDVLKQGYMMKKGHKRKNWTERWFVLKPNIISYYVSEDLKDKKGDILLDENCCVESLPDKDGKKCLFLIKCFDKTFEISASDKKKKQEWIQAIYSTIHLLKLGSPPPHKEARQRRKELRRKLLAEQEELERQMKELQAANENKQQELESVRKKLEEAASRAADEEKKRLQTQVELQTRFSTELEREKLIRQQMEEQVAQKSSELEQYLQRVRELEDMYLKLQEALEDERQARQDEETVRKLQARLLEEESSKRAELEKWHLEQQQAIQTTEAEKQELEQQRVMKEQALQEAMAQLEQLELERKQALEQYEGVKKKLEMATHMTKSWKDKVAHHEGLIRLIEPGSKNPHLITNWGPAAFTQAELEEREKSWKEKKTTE

Columns and labels:
[1] = molecular target: B23 (nucleophosmin), native protein from nuclear extract of switching B cells (UniProt Q61937); assay: SRTA-70 affinity column, eluted fractions probed in Western blot with anti B23 antibody
[2] = molecular target: poly(ADP-ribose) polymerase (PARP), native protein from nuclear extract of switching B cells (UniProt P11103); assay: SRTA-70 affinity column, eluted fractions probed in Western blot with anti PARP antibody
[3] = molecular target: B23 (nucleophosmin), native protein from nuclear extract of switching B cells (UniProt Q61937); assay: affinity chromatography: His-SRTA-70 on sepharose beads, nuclear extract from switching B cells, ammonium sulfate step elution, Western blot
[4] = molecular target: poly(ADP-ribose) polymerase (PARP), native protein from nuclear extract of switching B cells (UniProt P11103); assay: as above

binding [1]: binds
binding [2]: binds
binding [3]: binds
binding [4]: binds
Substance: His-tagged SRTA-70 (recombinant, expressed in E. coli from pQE-30, bound to sepharose beads) (from UniProt Q6A028 1-585)
